From publication PMC11067147
Results are given in words; binding and its absence hold for the method and conditions named. In cells and extracts the contact can be indirect. These calls come from enrichment with a bait or labelling near it, and not all partners need be listed.

Chains of the proteins cited; added tags and fusions are not shown.
UniProt Q7Z406: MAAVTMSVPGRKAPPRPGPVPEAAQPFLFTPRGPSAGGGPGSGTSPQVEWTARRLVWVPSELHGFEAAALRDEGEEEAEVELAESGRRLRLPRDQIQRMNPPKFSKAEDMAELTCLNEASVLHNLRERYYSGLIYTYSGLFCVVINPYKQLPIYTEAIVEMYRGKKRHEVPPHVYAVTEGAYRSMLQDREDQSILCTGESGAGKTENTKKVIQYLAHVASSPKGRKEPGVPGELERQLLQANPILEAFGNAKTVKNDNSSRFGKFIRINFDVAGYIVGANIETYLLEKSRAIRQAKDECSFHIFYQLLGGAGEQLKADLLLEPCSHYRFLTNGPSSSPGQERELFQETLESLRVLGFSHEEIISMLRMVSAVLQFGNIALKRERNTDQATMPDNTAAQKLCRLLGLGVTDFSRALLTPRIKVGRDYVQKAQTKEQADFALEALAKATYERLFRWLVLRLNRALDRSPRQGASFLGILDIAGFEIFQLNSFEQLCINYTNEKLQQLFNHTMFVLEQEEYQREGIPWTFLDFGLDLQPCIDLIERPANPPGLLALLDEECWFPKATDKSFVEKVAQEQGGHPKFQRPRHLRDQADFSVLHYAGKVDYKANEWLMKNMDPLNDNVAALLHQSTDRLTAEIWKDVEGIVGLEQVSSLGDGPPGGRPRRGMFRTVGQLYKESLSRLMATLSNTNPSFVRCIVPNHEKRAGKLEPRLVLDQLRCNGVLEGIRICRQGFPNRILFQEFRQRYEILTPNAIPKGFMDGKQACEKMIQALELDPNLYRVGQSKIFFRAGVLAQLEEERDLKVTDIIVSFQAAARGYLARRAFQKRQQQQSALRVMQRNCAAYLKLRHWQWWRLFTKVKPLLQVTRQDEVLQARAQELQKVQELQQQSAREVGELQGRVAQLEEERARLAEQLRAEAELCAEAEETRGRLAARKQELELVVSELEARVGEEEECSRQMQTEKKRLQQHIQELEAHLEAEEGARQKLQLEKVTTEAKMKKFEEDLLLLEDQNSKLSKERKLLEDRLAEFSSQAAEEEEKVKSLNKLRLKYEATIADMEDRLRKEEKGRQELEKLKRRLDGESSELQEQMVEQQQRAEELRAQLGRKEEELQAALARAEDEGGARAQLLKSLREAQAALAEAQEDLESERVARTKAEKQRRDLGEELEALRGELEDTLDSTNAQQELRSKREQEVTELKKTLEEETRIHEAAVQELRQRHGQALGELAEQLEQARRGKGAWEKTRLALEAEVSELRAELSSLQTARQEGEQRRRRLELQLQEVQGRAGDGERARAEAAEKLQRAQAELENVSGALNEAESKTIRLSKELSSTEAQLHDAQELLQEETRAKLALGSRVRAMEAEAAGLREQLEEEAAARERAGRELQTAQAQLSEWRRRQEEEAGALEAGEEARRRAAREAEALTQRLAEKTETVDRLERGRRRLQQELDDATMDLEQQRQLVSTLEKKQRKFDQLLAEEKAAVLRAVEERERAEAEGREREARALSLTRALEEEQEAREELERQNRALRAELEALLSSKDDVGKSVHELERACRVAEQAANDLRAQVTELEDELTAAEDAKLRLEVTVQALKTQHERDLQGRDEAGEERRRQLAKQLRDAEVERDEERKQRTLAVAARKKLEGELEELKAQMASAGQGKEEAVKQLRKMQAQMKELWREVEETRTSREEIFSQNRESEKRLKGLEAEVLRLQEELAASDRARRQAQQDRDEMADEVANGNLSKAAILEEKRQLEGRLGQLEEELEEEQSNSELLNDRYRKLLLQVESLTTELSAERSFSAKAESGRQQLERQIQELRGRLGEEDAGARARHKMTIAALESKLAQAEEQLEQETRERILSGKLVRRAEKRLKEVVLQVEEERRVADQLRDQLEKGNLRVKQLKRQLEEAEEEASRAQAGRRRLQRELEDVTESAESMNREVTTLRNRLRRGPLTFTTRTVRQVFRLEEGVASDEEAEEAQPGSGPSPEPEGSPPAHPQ
UniProt P35579: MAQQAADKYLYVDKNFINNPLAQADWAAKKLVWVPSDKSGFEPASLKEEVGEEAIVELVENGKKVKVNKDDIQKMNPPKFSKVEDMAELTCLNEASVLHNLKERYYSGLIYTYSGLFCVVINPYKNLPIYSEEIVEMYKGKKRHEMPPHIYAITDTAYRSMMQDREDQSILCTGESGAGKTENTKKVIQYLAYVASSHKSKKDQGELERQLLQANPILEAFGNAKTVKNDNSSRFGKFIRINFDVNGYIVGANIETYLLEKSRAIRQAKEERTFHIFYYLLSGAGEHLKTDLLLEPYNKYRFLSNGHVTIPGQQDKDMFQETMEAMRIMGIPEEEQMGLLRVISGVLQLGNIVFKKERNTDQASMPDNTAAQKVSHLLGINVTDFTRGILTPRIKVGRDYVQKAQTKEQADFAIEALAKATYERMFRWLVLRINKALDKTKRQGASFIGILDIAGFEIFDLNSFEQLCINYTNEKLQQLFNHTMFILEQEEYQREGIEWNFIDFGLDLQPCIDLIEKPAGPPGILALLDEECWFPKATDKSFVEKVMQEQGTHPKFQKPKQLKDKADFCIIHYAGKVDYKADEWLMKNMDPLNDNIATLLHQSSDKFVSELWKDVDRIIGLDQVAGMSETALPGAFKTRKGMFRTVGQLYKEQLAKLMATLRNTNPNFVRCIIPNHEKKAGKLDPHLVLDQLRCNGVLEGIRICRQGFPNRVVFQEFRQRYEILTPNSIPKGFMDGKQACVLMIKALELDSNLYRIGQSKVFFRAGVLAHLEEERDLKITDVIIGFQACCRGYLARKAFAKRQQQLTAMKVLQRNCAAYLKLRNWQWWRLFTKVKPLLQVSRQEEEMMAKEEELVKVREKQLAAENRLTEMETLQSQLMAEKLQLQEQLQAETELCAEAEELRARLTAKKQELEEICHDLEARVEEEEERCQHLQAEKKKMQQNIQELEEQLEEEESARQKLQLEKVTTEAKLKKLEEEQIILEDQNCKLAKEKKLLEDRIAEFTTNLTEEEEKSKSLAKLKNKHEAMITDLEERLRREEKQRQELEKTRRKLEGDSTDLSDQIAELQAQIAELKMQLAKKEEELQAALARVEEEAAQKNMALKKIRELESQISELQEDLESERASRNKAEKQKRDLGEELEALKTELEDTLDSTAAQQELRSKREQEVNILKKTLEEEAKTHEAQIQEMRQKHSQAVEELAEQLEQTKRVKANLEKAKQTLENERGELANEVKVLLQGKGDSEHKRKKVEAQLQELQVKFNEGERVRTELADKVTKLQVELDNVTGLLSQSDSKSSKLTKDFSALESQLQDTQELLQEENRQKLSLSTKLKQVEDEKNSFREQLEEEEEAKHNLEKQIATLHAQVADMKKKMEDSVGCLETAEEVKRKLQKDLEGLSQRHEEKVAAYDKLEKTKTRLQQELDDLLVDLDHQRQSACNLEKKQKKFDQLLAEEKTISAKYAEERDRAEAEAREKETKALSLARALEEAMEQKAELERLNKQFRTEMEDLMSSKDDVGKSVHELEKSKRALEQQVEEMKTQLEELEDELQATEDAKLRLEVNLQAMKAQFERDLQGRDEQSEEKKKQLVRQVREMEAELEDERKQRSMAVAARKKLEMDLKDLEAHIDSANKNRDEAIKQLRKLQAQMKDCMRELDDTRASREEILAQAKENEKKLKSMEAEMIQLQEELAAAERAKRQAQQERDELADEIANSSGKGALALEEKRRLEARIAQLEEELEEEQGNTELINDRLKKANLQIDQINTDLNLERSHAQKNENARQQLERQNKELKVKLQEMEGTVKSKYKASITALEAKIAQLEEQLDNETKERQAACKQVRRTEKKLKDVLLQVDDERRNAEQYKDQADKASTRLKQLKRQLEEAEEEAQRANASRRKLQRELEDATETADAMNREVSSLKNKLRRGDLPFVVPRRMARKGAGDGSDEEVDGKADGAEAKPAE

Molecular target: MYH14 (human (endogenous in Ishikawa and KLE)) (UniProt Q7Z406)
Assay: affinity purification with mass spectrometry; Pierce Co-IP kit, antibody covalently coupled to amine-reactive resin; 5 mg protein of EC cell lysate, overnight at 4 °C; eluate analysed by silver staining and mass spectrometry

MYH9 (from UniProt P35579 1-1960)
binding: binds
